Results as given in article PMC8683389, “The monofunctional CO dehydrogenase CooS is essential for growth of Thermoanaerobacter kivui on carbon monoxide” (Extremophiles, 2021).
No constants are given. Whether binding was seen depends on the method and setting. In cells and extracts the contact can be indirect. A result given as binding can be weak or reduced; the word gives no strength. Sequences can lack the tags named with a protein.

Chains of the proteins cited; added tags and fusions are not shown. Lines headed by an entry give the natural chain unless they say otherwise; changes in a name come on top.
UniProt A0A097AQC8: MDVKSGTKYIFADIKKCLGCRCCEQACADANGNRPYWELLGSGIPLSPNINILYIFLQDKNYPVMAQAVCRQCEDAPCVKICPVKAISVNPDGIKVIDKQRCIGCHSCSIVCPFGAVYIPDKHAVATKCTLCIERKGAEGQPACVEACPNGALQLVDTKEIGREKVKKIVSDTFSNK

Target: T1, His-CooS, His-tagged monofunctional CO dehydrogenase CooS of Thermoanaerobacter kivui (Thermoanaerobacter kivui)
T1 sequence: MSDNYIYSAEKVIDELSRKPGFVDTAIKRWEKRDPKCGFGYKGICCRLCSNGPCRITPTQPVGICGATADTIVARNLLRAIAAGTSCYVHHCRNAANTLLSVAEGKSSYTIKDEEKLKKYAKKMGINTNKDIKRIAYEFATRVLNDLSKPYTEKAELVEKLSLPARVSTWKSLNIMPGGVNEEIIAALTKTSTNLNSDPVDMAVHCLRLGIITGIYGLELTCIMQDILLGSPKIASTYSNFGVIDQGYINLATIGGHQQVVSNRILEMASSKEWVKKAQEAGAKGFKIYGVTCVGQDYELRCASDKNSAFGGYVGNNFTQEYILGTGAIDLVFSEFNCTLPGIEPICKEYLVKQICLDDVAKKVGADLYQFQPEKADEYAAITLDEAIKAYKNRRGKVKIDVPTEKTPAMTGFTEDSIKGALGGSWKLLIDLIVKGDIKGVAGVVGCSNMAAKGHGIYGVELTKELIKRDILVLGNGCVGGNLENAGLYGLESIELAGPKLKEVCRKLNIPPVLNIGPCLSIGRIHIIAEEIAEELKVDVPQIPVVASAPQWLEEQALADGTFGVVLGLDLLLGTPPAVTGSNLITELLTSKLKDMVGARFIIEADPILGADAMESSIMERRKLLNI
Assay: co-purification (Ni2+-NTA affinity chromatography, then SEC), SDS-PAGE; His-tagged protein produced in T. kivui, crude extract on Ni2+-NTA resin, then Superdex 200; strictly anoxic, room temperature, buffers A and B (50 mM Tris/HCl, 150 mM NaCl, 20 mM MgSO4, 20% glycerol, pH 7.5); co-purified protein seen on a Coomassie-stained 12% SDS gel

“CooF1 of Thermoanaerobacter kivui, small iron-sulfur center containing protein (from UniProt A0A097AQC8)” was tested, and the binding was “binds”.
